From article PMC9984387, “The dynamic nature of netrin-1 and the structural basis for glycosaminoglycan fragment-induced filament formation” (Nature Communications, 2023)
No constants are given. Whether binding was seen depends on the method and setting. A result given as binding can be weak or reduced; the word gives no strength.

B1: SMOC-1 (NP_071711 aa 26-452) (protein, UniProt Q8BLY1 26-452)
chain: HRTTGPRFLISDRDPPCNPHCPRTQPKPICASDGRSYESMCEYQRAKCRDPALAVVHRGRCKDAGQSKCRLERAQALEQAKKPQEAVFVPECGEDGSFTQVQCHTYTGYCWCVTPDGKPISGSSVQNKTPVCSGPVTDKPLSQGNSGRKVSFRFFLTLNSDDGSKPTPTMETQPVFDGDEITAPTLWIKHLVIKDSKLNNTNVRNSEKVHSCDQERQSALEEARQNPREGIVIPECAPGGLYKPVQCHQSTGYCWCVLVDTGRPLPGTSTRYVMPSCESDARAKSVEADDPFKDRELPGCPEGKKMEFITSLLDALTTDMVQAINSAAPTGGGRFSEPDPSHTLEERVAHWYFSQLDSNSSDDINKREMKPFKRYVKKKAKPKKCARRFTDYCDLNKDKVISLPELKGCLGVSKEGGSLGSFPQGKR
B2: SMOC-2 (NP_071710 22-447) (protein, UniProt Q8CD91-1 22-447)
chain: QKFSALTFLRVDQDKDRDCSLDCPSSPQKPLCASDGRTFLSRCEFQRAKCKDPQLEIAHRGNCKDVSRCVAERKYTQEQARKEFQQVFIPECNDDGTYSQVQCHSYTGYCWCVTPNGRPISGTAVAHKTPRCPGSINEKVPQREGAGKADDAAAPALETQPQGDEEDIASRYPTLWTEQVKSRQNKTNKNSASSCDQEHQSALEEAKQPKNDNVVIPECAHGGLYKPVQCHPSTGYCWCVLVDTGRPIPGTSTRYEQPKCDNTARAHPAKARDLYKNRPLQGCPGAKKHEFLTSVLDALSTDMVHAVSDPSSSSGRLSEPDPSHTLEERVVHWYFKLLDKNSSGDIGKKEIKPFKRFLRKKSKPKKCVKKFVEYCDMNNDKSITVQELMGCLGVTREEGKANTRKRHTPRGNAESSSSNRQPRKQG
B3: testican-2 (NP_443720 aa 23-423) (protein, UniProt Q9ER58 23-423)
chain: EGDAKGLKEGETPGNFMEDEQWLSSISQYSGKIKHWNRFRDEVEDDYIKSWEDNQQGDEALDTTKDPCQKVKCSRHKVCVAQGYQRAMCISRKKLEHRIKQPSLKLHGGKDSVCKPCHMAQLASVCGSDGHTYSSVCKLEQQACLSSKQLAVRCEGPCPCPTEQSTASTTDSKSETCTGQDLADLGDRLRDWFQLLRENSKQNGSANSATNPAGLDKSLGASCKDSIGWMFSKLDTSGDLFLDQTELAAINLDKYEVCIRPFFNSCDTYKDGRVSTAEWCFCFWREKPPCLAELERTQIQEAAKKKPGVFIPSCDEDGYYRKMQCDQSRGDCWCVDQLGLELTGTRMHGTPDCDDIVGFSGDFGSGVGWEDEEEKETEEAGEEAEEEEGEAGEADDGGYIW
B4: testican-1 (NP_033288 aa 22-442) (protein, UniProt Q62288 22-442)
chain: RHLDALAGGAALNNANFLDNDQWLSTVSQYDRDKYWNRFRDGIQDDYFRNWNPNKPFDQALDPSKDPCLKVKCSPHKVCVTQDYQTALCVSRKHLLPRQKKGNVAHKHWLGPSNLVKCKPCPVAQSAMVCGSDGHTYTSKCKLEFHACSTGKSLNSLCDGPCPCLPEPEPLKPKAEKSACTDKELRNLASRLKDWFGALHEDANRVIKPTSSDPAQGRFDTSILPICKDSLGWMFNKLDMNYDLLLDHSEINAIYLDKYEPCIKPLFNSCDSFKDGKLSNNEWCYCFQKPAGLPCQNEMNRIQKLSKGKSLLGAFIPRCNEEGYYKATQCHGSTGQCWCVDKYGNELAGSRKQGTVSCEEEQETSGDFGSGGSVVLLDDLEDERELGPKDKEGKLRVRTRAVREDDEDEDDDKEDEVGYIW
B5: glypican-5 (NP_780709 aa 25-549) (domain or fragment, UniProt Q8CAL5 25-549)
chain: EGVESCEEVRKLFQWRLGGAVKGLPEAPRAGPDLQVCLSKNPTCCTRKMEERYQIAARQDLQQVLQTSSSTLKLLISRNAAAFQETLETLIRQAENYTSILFCNTYRNMALEAAASIQEFFTDVGLYLFGADVNPEEFVNRFFDSLFPLVYNHLINPGVTDSSLQYSECIRMARQDVSPFGNIPKRVMGQMGRSLLPGRTFLQALNLGIEVINTTDHIHFSKECSRALLKMQYCPHCQSLMLSKPCMGYCLNVIRGCLAHMTELNPHWHAYIRSLEELSDAMHGTYDVEHVLLNFHLLVNDAVLQAHLNGQKLLDQVNTICGHPVRTPTQSPRCTFDPSKEKHGMKISARNGEETLANRRKEFINSLRLHGSFYGGLADQLCVNELAAPEGRPCWNGEEIVKSYAQRVVGNGIKAQSANPEVRVRGTDPVVNQIIDKLKHVIQLLRGRSPKPNKWELLQPGSGGGMLENSSGDCDDEDGCGGSGSGEVKRTLKITNWMPDSMNFSDVKQVHRADHGSTLDTTSTG

target: His-tagged NET1ΔC (coated in ELISA) (not stated (chicken or mouse cDNA cloned)); assay: ELISA; NET1ΔC coated; serial dilutions of strep-tagged HSPGs (0.5–500 nM) in solution; detection with strep-HRP; apparent constants; both purified

binding, binds:
B1
B2
B3
B4
B5
